PubChem BioAssay AID720505 – Drosophila RNAi Screening Center | 2013
Purpose: 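Genes needed for store-operated calcium entry in fly cells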 (primary screen). System: Drosophila S2R+ cells. Knock-down reagent: long dsRNA against Drosophila genes. Challenge: thapsigargin (2 µM) in calcium-free buffer to empty internal stores, then 2 mM calcium added back. Detection: 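Stores emptied by 2 µM thapsigargin without calcium, then 2 mM calcium re-added; fluo-4 fluorescence followed by FLIPR in 384-well plates, per-well averaged endpoint, raw; two screen passes, some wells retested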. Direction: calcium signal: higher = more calcium entry after store depletion. Hit rule: 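Knock-downs counted as hits when calcium entry dropped relative to STIM1 positive and Rho1 negative controls present on each plate; roughly 1500 genes called, with reductions of differing size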. Meaning of the calls: active = called as lowering calcium entry; inactive = not called.
The deposit covers about 20,000 reagents; below is a random part of those that have a named target and a result. Of all reagents, about 2,100 (10%) were called active. 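Raw plate signals without normalisation; calls rest on control-based scores that were not deposited; replicate 2 separates called from uncalled poorly.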 Names joined by + are all predicted targets of the reagent. Not given: the amount of reagent, the time to read-out.

CG6985 [DRSC16164] | calcium signal, replicate 1 = 145; calcium signal, replicate 2 = 278; outcome = inactive
grim [DRSC11352] | calcium signal, replicate 1 = 89.7; calcium signal, replicate 2 = 198; outcome = inactive
grim [DRSC23169] | calcium signal, replicate 1 = 113; calcium signal, replicate 2 = 113; outcome = inactive
CG31949 [DRSC00110] | calcium signal, replicate 1 = 82.7; calcium signal, replicate 2 = 95.7; outcome = inactive
MED7 (Mediator complex subunit 7) [DRSC16059] | calcium signal, replicate 1 = 91.2; calcium signal, replicate 2 = 88.4; outcome = inactive
fmt (fiery mountain) [DRSC09717] | calcium signal, replicate 1 = 104; calcium signal, replicate 2 = 150; outcome = inactive
CG10565 [DRSC11620] | calcium signal, replicate 1 = 152; calcium signal, replicate 2 = 114; outcome = inactive
be (ben) [DRSC19607] | calcium signal, replicate 1 = 103; calcium signal, replicate 2 = 91.6; outcome = inactive
be (ben) [DRSC19944] | calcium signal, replicate 1 = 85.9; calcium signal, replicate 2 = 103; outcome = inactive
be (ben) [DRSC19945] | calcium signal, replicate 1 = 87; calcium signal, replicate 2 = 107; outcome = inactive
Gfat1 (Glutamine:fructose-6-phosphate aminotransferase 1) [DRSC21219] | calcium signal, replicate 1 = 148; calcium signal, replicate 2 = 101; outcome = inactive
ArfGAP1 (ADP-ribosylation factor GTPase activating protein 1) [DRSC11173] | calcium signal, replicate 1 = 126; calcium signal, replicate 2 = 97.4; outcome = inactive
CG7737 [DRSC07033] | calcium signal, replicate 1 = 121; calcium signal, replicate 2 = 113; outcome = inactive
Nox (NADPH oxidase) [DRSC06596] | calcium signal, replicate 1 = 151; calcium signal, replicate 2 = 151; outcome = inactive
Nox (NADPH oxidase) [DRSC06857] | calcium signal, replicate 1 = 134; calcium signal, replicate 2 = 133; outcome = inactive
CG3927 [DRSC04433] | calcium signal, replicate 1 = 66.1; calcium signal, replicate 2 = 115; outcome = active
CG3927 [DRSC22813] | calcium signal, replicate 1 = 68.5; calcium signal, replicate 2 = 83.5; outcome = inactive
sloth2 + sloth1 [DRSC17922] | calcium signal, replicate 1 = 245; calcium signal, replicate 2 = 123; outcome = inactive
sloth2 + sloth1 [DRSC17923] | calcium signal, replicate 1 = 233; calcium signal, replicate 2 = 178; outcome = inactive
CG34276 [DRSC15811] | calcium signal, replicate 1 = 127; calcium signal, replicate 2 = 199; outcome = inactive
CG3038 [DRSC18618] | calcium signal, replicate 1 = 125; calcium signal, replicate 2 = 113; outcome = inactive
mtd (mustard) [DRSC12131] | calcium signal, replicate 1 = 115; calcium signal, replicate 2 = 92.9; outcome = inactive
mtd (mustard) [DRSC12380] | calcium signal, replicate 1 = 99.1; calcium signal, replicate 2 = 129; outcome = inactive
mtd (mustard) [DRSC12381] | calcium signal, replicate 1 = 143; calcium signal, replicate 2 = 168; outcome = inactive
Or22b (Odorant receptor 22b) [DRSC00765] | calcium signal, replicate 1 = 158; calcium signal, replicate 2 = 161; outcome = inactive
CG43131 [DRSC12046] | calcium signal, replicate 1 = 8593; calcium signal, replicate 2 = 182; outcome = inactive
CG34041 [DRSC22276] | calcium signal, replicate 1 = 115; calcium signal, replicate 2 = 185; outcome = inactive
Cpr67Fb (Cuticular protein 67Fb) [DRSC10314] | calcium signal, replicate 1 = 59.9; calcium signal, replicate 2 = 118; outcome = inactive
Sptr (Sepiapterin reductase) [DRSC18719] | calcium signal, replicate 1 = 118; calcium signal, replicate 2 = 82.9; outcome = inactive
spz3 (spatzle 3) [DRSC02391] | calcium signal, replicate 1 = 101; calcium signal, replicate 2 = 174; outcome = inactive
spz3 (spatzle 3) [DRSC03008] | calcium signal, replicate 1 = 88; calcium signal, replicate 2 = 131; outcome = inactive
obst-E (obstructor-E) [DRSC02128] | calcium signal, replicate 1 = 120; calcium signal, replicate 2 = 252; outcome = inactive
sei (seizure) [DRSC04713] | calcium signal, replicate 1 = 181; calcium signal, replicate 2 = 114; outcome = inactive
Brca2 (BRCA2, DNA repair associated) [DRSC04219] | calcium signal, replicate 1 = 143; calcium signal, replicate 2 = 213; outcome = inactive
Brca2 (BRCA2, DNA repair associated) [DRSC04220] | calcium signal, replicate 1 = 85.7; calcium signal, replicate 2 = 229; outcome = inactive

Active calls, of those listed so far:
CG3927 [DRSC04433] | calcium signal, replicate 1 = 66.1; calcium signal, replicate 2 = 115; outcome = active
